Experimental data as given in patent US20070269892A1 (NASTECH PHARMACEUTICAL COMPANY INC., priority 2006, published 2007).

Assay: general procedure: Fmoc solid-phase peptide synthesis; Wang resin with first amino acid loaded (0.45 mmol/μm); HOBt and DIC double coupling
Details: whole synthesis, scale 90 umol

Substance: Cys-Trp-(Lys)8-Cys (CWKKKKKKKKC)
- crude yield: 54.1%
- isolated yield: 23.2%

Substance: Cys-Trp-His-(Lys)4-His-(Lys)4-Cys (CWHKKKKHKKKKC)
- crude yield: 39.8%
- isolated yield: 17.5%

Substance: Cys-Trp-(Lys)4-His-(Lys)4-Cys (CWKKKKHKKKKC)
- crude yield: 53.1%
- isolated yield: 21.1%

Substance: Cys-Trp-(Lys)10-Cys (CWKKKKKKKKKKC)
- crude yield: 51%
- isolated yield: 18.9%

Substance: Cys-Trp-(Lys)4-Cys-(Lys)4-Cys (CWKKKKCKKKKC)
- crude yield: 51%
- isolated yield: 20.1%

Substance: Cys-Trp-His-(Lys)4-His-(Lys)4-His-Cys (CWHKKKKHKKKKHC)
- crude yield: 45.2%
- isolated yield: 13.8%

Substance: Cys-Trp-(Lys)6-Cys (CWKKKKKKC)
- crude yield: 53.2%
- isolated yield: 25.4%

Substance: Cys-Trp-(Lys)4-Cys (CWKKKKC)
- crude yield: 61.6%
- isolated yield: 29.6%
